Experimental data: PubChem BioAssay AID504804 (Drosophila RNAi Screening Center, 2011)
The screen tested about 19,000 reagents; this is an unselected part of those with a known target gene and a result. In the full data, 47 (0.25%) were called active. 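Signals are raw, not normalised; exact z-scores behind calls not deposited; actives needed confirmation, so some wells reaching 2 SD are inactive.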 Reagents against one gene are numbered here. Reagent sequences are not shown.

Screen: 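dsRNAs that improve Kc cell survival under doxorubicin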 (primary screen)
Cells: Drosophila Kc cells
Reagent: long dsRNA against Drosophila genes, 0.5 µg dsRNA per well
Time to read-out: 96 h (48 h knock-down, then 48 h drug)
Treatment: doxorubicin 5 µg/ml for 48 h, added 48 h after dsRNA
Measured: 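Luminescent ATP counts per replicate, not normalised, reflecting viable cells after 48 h dsRNA knock-down followed by 48 h of 5 µg/ml doxorubicin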
Reading the numbers: raw ATP luminescence: higher = more viable cells, protection from doxorubicin
Hit rule: 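z-score of 2 or more over plate mean in both duplicates, retained only when retests and separate dsRNAs confirm the protection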

| Target gene | dsRNA no. | SD above plate mean | raw ATP luminescence, replicate 1 | raw ATP luminescence, replicate 2 | Call |
| --- | --- | --- | --- | --- | --- |
| CG1946 | 1 | – | 50933 | 76757 | inactive |
| CG33125 | 1 | – | 2.74e5 | 3.20e5 | inactive |
| CG5157 | 1 | – | 62557 | 50940 | inactive |
| CG34054 | 1 | – | 64767 | 84797 | inactive |
| alc | 1 | – | 54190 | 74320 | inactive |
| eIF4E7 | 1 | – | 36760 | 58720 | inactive |
| eIF4E7 | 2 | – | 45820 | 56790 | inactive |
| dpr17 | 1 | – | 2.35e5 | 2.04e5 | inactive |
| dpr17 | 2 | – | 24767 | 25860 | inactive |
| dpr17 | 3 | – | 48460 | 50790 | inactive |
| Sec23 | 1 | 2 to 3 SD above plate mean | 1.08e5 | 49900 | active |
| Yod1 | 1 | 2 to 3 SD above plate mean | 89333 | 63203 | inactive |
| her | 1 | – | 86783 | 52743 | inactive |
| DCTN3-p24 | 1 | – | 63950 | 55517 | inactive |
| Tbce | 1 | – | 71107 | 80140 | inactive |
| Eo | 1 | – | 2.99e5 | 2.15e5 | inactive |
| CG14757 | 1 | – | 53307 | 81443 | inactive |
| Lasp | 1 | – | 96440 | 61020 | inactive |
| pip | 1 | – | 69500 | 68720 | inactive |
| CG10657 | 1 | – | 37653 | 34623 | inactive |
| CG34049 | 1 | – | 1.53e5 | 1.78e5 | inactive |
| CG8840 | 1 | – | 24067 | 23860 | inactive |
| bdl | 1 | – | 1.26e5 | 75510 | inactive |
| hook | 1 | – | 83820 | 55340 | inactive |
| CG13678 | 1 | – | 2.04e5 | 1.94e5 | inactive |
| Tbp | 1 | – | 58133 | 48070 | inactive |
| CG18094 | 1 | – | 74083 | 59533 | inactive |
| Cpr76Ba | 1 | – | 64600 | 70277 | inactive |
| Ccp84Ae | 1 | – | 63990 | 56643 | inactive |
| msl-1 | 1 | – | 39773 | 32090 | inactive |
| CG14840 | 1 | – | 83940 | 70070 | inactive |
| Vps8 | 1 | – | 76850 | 74747 | inactive |
| Mst57Da | 1 | – | 60870 | 57730 | inactive |
| Xpc | 1 | – | 67373 | 67180 | inactive |
| Jon25Bi | 1 | – | 26377 | 29983 | inactive |
| CG32606 (retired record) | 1 | – | 28550 | 28257 | inactive |
| CG32606 (retired record) | 2 | – | 3.40e5 | 3.37e5 | inactive |
| CG32606 (retired record) | 3 | – | 3.08e5 | 2.54e5 | inactive |
| CG32606 (retired record) | 4 | – | 3.39e5 | 3.27e5 | inactive |
| CG12147 | 1 | – | 66730 | 67000 | inactive |
| CG6712 | 1 | 2 to 3 SD above plate mean | 1.49e5 | 1.05e5 | active |
| DppIII | 1 | – | 56787 | 64250 | inactive |
| Gos28 | 1 | – | 58230 | 84480 | inactive |
| CG5515 | 1 | – | 35397 | 50637 | inactive |
| CG42336 | 1 | – | 95117 | 88523 | inactive |
| CG42336 | 2 | – | 1.83e5 | 1.81e5 | inactive |
| CG9308 | 1 | – | 44960 | 46730 | inactive |
| CG11893 | 1 | – | 84940 | 73250 | inactive |
| Syt12 | 1 | – | 3.72e5 | 3.35e5 | inactive |
| Syx1A | 1 | – | 57990 | 56720 | inactive |
| Alg12 | 1 | – | 56687 | 63617 | inactive |
| AlaRS | 1 | – | 1.17e5 | 83370 | inactive |
| betaNACtes1 | 1 | – | 3.17e5 | 2.65e5 | inactive |

Laid out differently: 7 of the entries above
{"Target gene": "CG5515", "dsRNA no.": 1, "raw ATP luminescence, replicate 1": 35397, "raw ATP luminescence, replicate 2": 50637, "Call": "inactive"}
{"Target gene": "CG42336", "dsRNA no.": 1, "raw ATP luminescence, replicate 1": 95117, "raw ATP luminescence, replicate 2": 88523, "Call": "inactive"}
{"Target gene": "CG42336", "dsRNA no.": 2, "raw ATP luminescence, replicate 1": 1.83e5, "raw ATP luminescence, replicate 2": 1.81e5, "Call": "inactive"}
{"Target gene": "CG9308", "dsRNA no.": 1, "raw ATP luminescence, replicate 1": 44960, "raw ATP luminescence, replicate 2": 46730, "Call": "inactive"}
{"Target gene": "CG11893", "dsRNA no.": 1, "raw ATP luminescence, replicate 1": 84940, "raw ATP luminescence, replicate 2": 73250, "Call": "inactive"}
{"Target gene": "Syt12", "dsRNA no.": 1, "raw ATP luminescence, replicate 1": 3.72e5, "raw ATP luminescence, replicate 2": 3.35e5, "Call": "inactive"}
{"Target gene": "Syx1A", "dsRNA no.": 1, "raw ATP luminescence, replicate 1": 57990, "raw ATP luminescence, replicate 2": 56720, "Call": "inactive"}

More reagents follow.
| Target gene | dsRNA no. | SD above plate mean | raw ATP luminescence, replicate 1 | raw ATP luminescence, replicate 2 | Call |
| --- | --- | --- | --- | --- | --- |
| Sprn | 1 | – | 99340 | 68953 | inactive |
| Pih1D1 | 1 | – | 91137 | 73443 | inactive |
| Osi2 | 1 | – | 73437 | 55913 | inactive |
| Gasz | 1 | – | 52487 | 50180 | inactive |
| CG12729 | 1 | – | 48790 | 37700 | inactive |
| CG30065 | 1 | – | 74533 | 85407 | inactive |
| sev | 1 | – | 2.69e5 | 3.06e5 | inactive |
| Cyp9b2 | 1 | – | 49053 | 79823 | inactive |
| CstF64 | 1 | – | 65920 | 54610 | inactive |
| Sin3A | 1 | – | 54080 | 50580 | inactive |
| CanB | 1 | – | 40110 | 62820 | inactive |
| CG6938 | 1 | – | 74283 | 74157 | inactive |
| rho-5 | 1 | – | 54470 | 86500 | inactive |
| CG5080 | 1 | – | 99383 | 49417 | inactive |
| CG4982 | 1 | – | 1.91e5 | 1.88e5 | inactive |
| CG14237 | 1 | – | 39280 | 46170 | inactive |
| CtBP | 1 | – | 42170 | 20077 | inactive |
| Coa8 | 1 | – | 64410 | 46610 | inactive |
| stumps | 1 | – | 1.75e5 | 1.79e5 | inactive |
| stumps | 2 | – | 48300 | 42990 | inactive |
| stumps | 3 | – | 87780 | 38550 | inactive |
| CG13044 | 1 | – | 35937 | 27143 | inactive |
| l(2)gl | 1 | – | 1.85e5 | 2.28e5 | inactive |
| CG12320 | 1 | – | 56660 | 75850 | inactive |
| CG34039 | 1 | – | 72803 | 72147 | inactive |
| CG9676 | 1 | – | 3.77e5 | 3.36e5 | inactive |
| CG32461 | 1 | – | 52617 | 43257 | inactive |
| qtc | 1 | – | 1.15e5 | 75687 | inactive |
| qtc | 2 | – | 23807 | 24997 | inactive |
| Vps13B | 1 | – | 66170 | 64330 | inactive |
| CG12093 | 1 | – | 76083 | 59520 | inactive |
